Measured values published in PubChem BioAssay AID1347075 (National Center for Advancing Translational Sciences (NCATS), 2019).
Values joined by “and” are separate entries in the source; they are usually repeats but may differ in a detail not shown here. Equal values may be shown once. Out of some 400,000 compounds screened, about 5,500 (1.4%) were called active. The shares of active, inactive and inconclusive entries below differ from those in the screen. Calls follow the shape of the dose curve; as a rule, active = well fitted cell-killing curve with a large enough effect; inconclusive = small, poorly fitted or top-dose-only effect, or effect the other way; inactive = flat fitted curve, though single readings scatter. Potencies beside an inconclusive call are fits to weak or partial responses and may not hold up.

Assay: qHTS assay for MDR1-selective chemotherapeutics: Primary screen using the parental adenocarcinoma cell KB-3-1; also: nearly all actives have a fitted effect of over 60% in size
Settings: KB-3-1 viability, CellTiter-Glo ATP luminescence, 72 h; activity change, negative = cytotoxic: at 46.1 µM (top of the series)
Summary of the method: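 Screening of KB-3-1 cells (DMEM, 10% FBS, phenol-red free) ran from lowest to highest compound concentration; after 72 h at 37 °C viability was read luminescently and curves fitted.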
% is scaled to controls: 0 for no effect and ±100 for the full control effect; potency is read from the fitted curve at half-maximal effect.

SMILES | Potency | activity change, negative = cytotoxic
CCC(c1nnnn1-c1c(C)cccc1C)N1CCN(c2cccc(C(F)(F)F)n2)CC1 (stereo not drawn) | inconclusive: 29.1 µM [cytotoxic, single point] | 
O=C(Nc1ccc(Cn2cccn2)cc1)c1ccc(COc2cccc(Br)c2)cc1 | active: 0.731 µM | 
S=c1nc(-c2ccccc2)[nH]n1-c1ccccc1 |  | inactive: 10.9%
CCN1C(=O)c2cccc3c(NS(=O)(=O)c4ccc(NC(C)=O)cc4)ccc1c23 | inconclusive: 23.1 µM [cytotoxic, single point] | 
CCN(CCCNC(=O)C1CCC(=O)N1Cc1ccccc1Cl)c1cccc(C)c1 (stereo not drawn) |  | inactive: -12.1%
COc1ccc(-c2cn(-c3ccc(C)cc3C)c(=O)[nH]2)cc1OC | inconclusive: 29.1 µM [cytotoxic, single point] | 
COc1ccc(CNC(=O)c2cnn(-c3ccc(C)cc3)c2C2CCN(C(=O)OC(C)(C)C)CC2)cc1 | inconclusive: 29.1 µM [cytotoxic, single point] | 
CCCN1C(=O)c2ccc(C(=O)NCc3ccco3)cc2C1=O |  | inactive: 0.231%
COCCC(=O)N1CCC(Oc2ccc(C(=O)NCCc3ccccn3)cc2)CC1 |  | inactive: 3.05%
COCCNC(=O)/C(C#N)=C/c1nc(N(C)C)n(-c2ccc(F)cc2)c1Cl | inconclusive: 20.6 µM [cytotoxic, single point] | 
CC(C)(C)OC(=O)C[C@H]1C/C=C\C[C@@H](CC(=O)N[C@H](CO)Cc2ccccc2)C(=O)NC[C@@H](c2ccccc2)OC1=O | inconclusive: 13 µM [cytotoxic, partial curve] | 
CC(=O)Nc1ccc2[nH]c(C)c(CC=C(Cl)Cl)c(=O)c2c1 | inconclusive: 18.4 µM [rising, single point] | 
COc1ccccc1NC(=O)c1ccc(-c2ccc(Br)cc2)o1 | active: 5.8 µM | 
C/C(=C/C(=O)O)C(=O)Nc1cccc(C(F)(F)F)c1 |  | inconclusive: 5.83%
CN(C1CCCCC1)S(=O)(=O)c1ccc(NC(=S)NC(=O)c2cccs2)cc1 | inconclusive: 22.4 µM [cytotoxic, single point] | 
O=C(NNC1=Nc2ccccc2SC1)c1ccc(Cl)cc1 | inconclusive: 16.4 µM [cytotoxic, single point] | 
Nc1nc2[nH]c(=S)[nH]c2c(=O)[nH]1 | inconclusive: 25.9 µM [rising, partial curve, poor fit] | 
COc1ccc(C(=O)NNC(=O)c2ccc3ccccc3n2)cc1 | inconclusive: 25.9 µM [cytotoxic, single point] | 
COC(=O)COc1ccc(/C=N/NC(=O)CN(c2ccccc2OC)S(=O)(=O)c2ccccc2)cc1 | inconclusive: 29.1 µM [cytotoxic, single point] | 
Cn1c(NCc2cccnc2)nc2c1c(=O)n(Cc1ccccc1F)c(=O)n2C | inconclusive: 10.3 µM [cytotoxic, partial curve, poor fit] | 
Cc1c(OCC(=O)NCc2ccncc2)ccc2c3c(c(=O)oc12)CCC3 | inconclusive: 1.46 µM [rising, full curve, poor fit] | 
CC(C)CC(=O)Nc1nc2ccc(S(=O)(=O)N3CCOCC3)cc2s1 | inconclusive: 6.51 µM [cytotoxic, full curve, poor fit] | 

As entered above.
Under activity change, negative = cytotoxic, COCCC(=O)N1CCC(Oc2ccc(C(=O)NCCc3ccccn3)cc2)CC1 reads inactive: 3.05%
Under Potency, Cc1c(OCC(=O)NCc2ccncc2)ccc2c3c(c(=O)oc12)CCC3 reads inconclusive: 1.46 µM [rising, full curve, poor fit]

Additional structures follow.

SMILES | Potency | activity change, negative = cytotoxic
CN(C(=O)CSc1nc2ccccc2c(=O)n1-c1ccc(F)cc1F)C1CCS(=O)(=O)C1 (stereo not drawn) |  | inactive: 5.4%
COc1ccc(-c2csc(C3=C(O)CN(C(C)C)C3=N)n2)cc1OC | inconclusive: 29.1 µM [cytotoxic, single point] | 
CC1CCc2c(sc3nnn(CC(=O)Nc4cccc(C(F)(F)F)c4)c(=O)c23)C1 (stereo not drawn) |  | inactive: 0.285%
Cc1nc(N)sc1-c1csc(N(C)c2ccc(O)cc2)n1 |  | inconclusive: -33.5% [cytotoxic]
O=C(CSc1nnc(-c2ccccc2Cl)o1)N1CCCCC1 | inconclusive: 25.9 µM [cytotoxic, single point] | 
COc1ccc2c(c1)c(CC(=O)NCc1cc([N+](=O)[O-])ccc1O)c(C)n2C(=O)c1ccc(Cl)cc1 | inconclusive: 5.8 µM [cytotoxic, partial curve, poor fit] | 
Cc1cc(Nc2cccc(F)c2)nc(NCc2ccccc2)n1 | inconclusive: 16.4 µM [cytotoxic, single point] | 
N#C/C(=C\c1ccc(OCCN2CCOCC2)cc1)C(=O)Nc1ccc(S(N)(=O)=O)cc1 |  | inactive: 10.8%
Cc1nc2c(-c3ccc(F)cc3)c(C)[nH]n2c(=O)c1Cl | active: 10.3 µM | 
CCN(CC)S(=O)(=O)c1ccc(/C=C/C(=O)OCC(=O)NCc2ccc3c(c2)OCO3)cc1 | inconclusive: 18.4 µM [cytotoxic, single point] | 
CC12CCC(C(=O)N(CCCN3CCN(Cc4ccccc4)CC3)C1=O)C2(C)C (stereo not drawn) |  | inactive: -9.15%
O=C1c2ccccc2C(=O)c2c(NCCCN(CCO)CCO)cccc21 | inconclusive: 14.6 µM [cytotoxic, single point] | 
CCOC(=O)c1sc(NNC(=O)c2ccc(F)cc2)nc1C | inconclusive: 29.1 µM [cytotoxic, single point] | 
CC1(C(=O)NCc2cccs2)Cc2c(-c3ccccc3)ccnc2O1 (stereo not drawn) | active: 5.8 µM | 
Cc1ccc(S(=O)(=O)NCc2nnnn2-c2ccc(F)cc2)cc1 | inconclusive: 29.1 µM [rising, single point] | 
C=CCSc1cc(C)nc2c(-c3ccccc3)cnn12 | inconclusive: 29.1 µM [cytotoxic, single point] | 
COC(=O)c1ccc(NC(=O)c2cccc(N3C(=O)C4C5C=CC(C6CC56)C4C3=O)c2)cc1 (stereo not drawn) | inconclusive: 29.1 µM [cytotoxic, single point] | 
Cc1oc(-c2ccc(C(=O)N(C)Cc3ccccc3)cc2)nc1CN1CCc2ccccc21 | active: 14.6 µM | 
Cn1c(-c2ccc(Br)o2)nc2ccccc21 | active: 25.9 µM and inconclusive: 16.4 µM [cytotoxic, single point] | 
COc1ccc(CCNC(=O)CSCc2ccc([N+](=O)[O-])cc2)cc1OC |  | inactive: -6.86%
CCCCCc1c(C)nc(Nc2ccc(F)cc2)[nH]c1=O |  | inactive: -15.5%
